# The list shows a part of the results. Repeats are few or missing, and single values can be far off.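 Imaging used 1,536-well plates; nuclei positive for cleaved PARP by antibody were divided by total DNA-stained nuclei to yield the apoptosis fraction. Doses for screening kept most cells viable, and cell lines differ markedly in resting and induced cleaved-PARP levels.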
# Experiments:
# Assay in all cases: cleaved PARP positive nuclei fraction relative to DMSO control; melanoma cells; higher = more apoptosis
# Conditions in all cases: library dose: low library concentration; 72 h
# [1] = system: MZ2-MEL
# [2] = system: MeWo
# [3] = system: RPMI7951
# [4] = system: RVH-421
# [5] = system: SkMel28
# [6] = system: SkMel30
# [7] = system: SkMel5
# [8] = system: UACC257
# [9] = system: UACC62
SMILES,cleaved PARP positive nuclei fraction [1],cleaved PARP positive nuclei fraction [2],cleaved PARP positive nuclei fraction [3],cleaved PARP positive nuclei fraction [4],cleaved PARP positive nuclei fraction [5],cleaved PARP positive nuclei fraction [6],cleaved PARP positive nuclei fraction [7],cleaved PARP positive nuclei fraction [8],cleaved PARP positive nuclei fraction [9]
"C[C@]1(c2nc3c(C(N)=O)cccc3[nH]2)CCCN1 [Veliparib] + CCN(CC)CCCCNc1ncc2cc(-c3cc(OC)cc(OC)c3)c(NC(=O)NC(C)(C)C)nc2n1 [PD173074] (first compound 1.4 µM, partner dose 0.1 µM)",114%,69.4%,34.6%,53.4%,39.6%,73.2%,59.7%,131%,95.7%
"C#Cc1cccc(Nc2ncnc3cc(OCCOC)c(OCCOC)cc23)c1 [erlotinib] + CC(C)CCN1c2nc(Nc3cc(F)c(O)c(F)c3)ncc2N(C)C(=O)C1C [BID1870] (first compound 0.8 µM, partner dose 0.2 µM)",179%,116%,80.7%,66.6%,142%,38.4%,58.8%,116%,428%
"Cc1ccc(NC(=O)c2cccc(N(C)C)c2)cc1NC(=O)c1ccc(O)cc1 + COC(=O)c1sccc1S(=O)(=O)Nc1ccc(Nc2ccccc2)cc1OC [GSK0660] (first compound 2 µM, partner dose 1 µM)",82.3%,73.6%,95.5%,118%,105%,209%,76.2%,49.9%,162%
"C#Cc1cccc(Nc2ncnc3cc(OCCOC)c(OCCOC)cc23)c1 [erlotinib] + COc1ccc(COc2ccc(Cc3cnc(N)nc3N)cc2OC)cc1 [GW2580] (first compound 0.8 µM, partner dose 1 µM)",187%,205%,79.2%,78.7%,210%,47%,55%,148%,56.9%
"Cn1cncc1[C@@](N)(c1ccc(Cl)cc1)c1ccc2c(c1)c(-c1cccc(Cl)c1)cc(=O)n2C [tipifarnib] + c1cc(-c2cnn3cc(-c4ccc(OCCN5CCCCC5)cc4)cnc23)ccn1 [Dorsomorphin] (first compound 0.01 µM, partner dose 0.4 µM)",221%,80.4%,50.1%,103%,124%,159%,66.5%,180%,57.6%
"C[C@@H]1CCN(C(=O)CC#N)C[C@@H]1N(C)c1ncnc2[nH]ccc12 + N#Cc1c(O)c2c(-c3ccc(-c4ccccc4O)cc3)csc2[nH]c1=O [A769662] (first compound 1 µM, partner dose 2 µM)",143%,73%,31.9%,46.9%,148%,12.9%,25.6%,72.9%,50.4%
"C=CCn1c(=O)c2cnc(Nc3ccc(N4CCN(C)CC4)cc3)nc2n1-c1cccc(C(C)(C)O)n1 + COc1ccc2c(c1)CCC1C2CCC2(C)C(NCCCCCCN3C(=O)C=CC3=O)CCC12 [U73122] (first compound 0.02 µM, partner dose 0.4 µM)",88.9%,57.3%,78.6%,87.5%,127%,115%,187%,268%,90%
"C[C@@H]1CCN(C(=O)CC#N)C[C@@H]1N(C)c1ncnc2[nH]ccc12 + CCN(CC)CCCCNc1ncc2cc(-c3cc(OC)cc(OC)c3)c(NC(=O)NC(C)(C)C)nc2n1 [PD173074] (first compound 1 µM, partner dose 0.1 µM)",20.9%,47.8%,89.3%,79.3%,159%,108%,48.8%,149%,31%
"Cn1c(Nc2ccc(C(F)(F)F)cc2)nc2cc(Oc3ccnc(-c4ncc(C(F)(F)F)[nH]4)c3)ccc21 + Cc1cc([N+](=O)[O-])ccc1NS(=O)(=O)c1cc(Cl)ccc1Cl [FH535] (first compound 0.08 µM, partner dose 1 µM)",179%,89.3%,207%,44.4%,155%,465%,118%,427%,265%
"Cc1nc(Nc2ncc(C(=O)Nc3c(C)cccc3Cl)s2)cc(N2CCN(CCO)CC2)n1 [dasatanib] + O=C1NC(=O)/C(=C/c2ccc(-c3ccc(F)cc3O)o2)S1 [AS252424] (first compound 0.004 µM, partner dose 1 µM)",222%,66.2%,31.4%,16.4%,259%,15.7%,34.2%,151%,78.9%
"NC(=O)Nc1cc(-c2cccc(F)c2)sc1C(=O)N[C@H]1CCCNC1 + O=S(=O)(c1ccccc1)N(CC(F)(F)F)c1ccc(C(O)(C(F)(F)F)C(F)(F)F)cc1 [T0901317] (first compound 0.02 µM, partner dose 1.4 µM)",57.8%,51.7%,37.7%,48.1%,144%,21.3%,32.1%,77.6%,55.3%
"NC(=O)Nc1cc(-c2cccc(F)c2)sc1C(=O)N[C@H]1CCCNC1 + O=c1cc(-c2cccc3c2Sc2ccccc2S3)oc(N2CCOCC2)c1 [KU55933] (first compound 0.02 µM, partner dose 1 µM)",99.5%,25.5%,96.2%,58.9%,67.3%,44.8%,61.3%,57.9%,182%
"CC(C)(C)c1cnc(CSc2cnc(NC(=O)C3CCNCC3)s2)o1 + CC(C)CCN1c2nc(Nc3cc(F)c(O)c(F)c3)ncc2N(C)C(=O)C1C [BID1870] (first compound 0.01 µM, partner dose 0.2 µM)",192%,58.6%,229%,35.4%,198%,26.8%,134%,156%,72.1%
"Cc1ccc(NC(=O)c2cccc(N(C)C)c2)cc1NC(=O)c1ccc(O)cc1 + CC(C)CCN1c2nc(Nc3cc(F)c(O)c(F)c3)ncc2N(C)C(=O)C1C [BID1870] (first compound 2 µM, partner dose 0.2 µM)",152%,363%,86.8%,60.7%,196%,740%,82.6%,103%,48.2%
"CC(C)(C)c1cnc(CSc2cnc(NC(=O)C3CCNCC3)s2)o1 + CCN(CC)CCCCNc1ncc2cc(-c3cc(OC)cc(OC)c3)c(NC(=O)NC(C)(C)C)nc2n1 [PD173074] (first compound 0.01 µM, partner dose 0.1 µM)",126%,71.7%,86.7%,49.9%,94.3%,443%,80.7%,130%,46.1%
"CC1(C)NC(=O)N(c2ccc([N+](=O)[O-])c(C(F)(F)F)c2)C1=O [nilutamide] + CCN(CC)CCCCNc1ncc2cc(-c3cc(OC)cc(OC)c3)c(NC(=O)NC(C)(C)C)nc2n1 [PD173074] (first compound 1 µM, partner dose 0.1 µM)",109%,48.1%,37.8%,69.2%,97.3%,122%,52.4%,19.9%,86.9%
"CC(C)(C)c1cnc(CSc2cnc(NC(=O)C3CCNCC3)s2)o1 + Oc1cc(-c2nc(-c3ccccc3)[nH]c2-c2ccncc2)ccc1Cl [L779450] (first compound 0.01 µM, partner dose 0.2 µM)",88.4%,98.2%,53%,63.3%,74.2%,22.3%,50.4%,25.8%,131%
"Nc1cccc2c1CN(C1CCC(=O)NC1=O)C2=O (stereo unspecified) [lenalidomide] + Cc1cc([N+](=O)[O-])ccc1NS(=O)(=O)c1cc(Cl)ccc1Cl [FH535] (first compound 1 µM, partner dose 1 µM)",70.5%,52.5%,304%,24.8%,101%,115%,70.7%,59.6%,32.7%
"Cn1nnc2c(C(N)=O)ncn2c1=O [temozolomide] + N#Cc1c(O)c2c(-c3ccc(-c4ccccc4O)cc3)csc2[nH]c1=O [A769662] (first compound 2 µM, partner dose 2 µM)",111%,47.5%,46.1%,103%,19.5%,40.2%,41.8%,353%,92.2%
"CC1(C)NC(=O)N(c2ccc([N+](=O)[O-])c(C(F)(F)F)c2)C1=O [nilutamide] + CCc1ccc(CCOc2ccc(CC3SC(=O)NC3=O)cc2)nc1 [pioglitazone] (first compound 1 µM, partner dose 2 µM)",59.3%,252%,81.6%,168%,168%,144%,28%,117%,74.7%
"Nc1cccc2c1CN(C1CCC(=O)NC1=O)C2=O (stereo unspecified) [lenalidomide] + COc1ccc2c(c1)CCC1C2CCC2(C)C(NCCCCCCN3C(=O)C=CC3=O)CCC12 [U73122] (first compound 1 µM, partner dose 0.4 µM)",75.2%,62.7%,149%,62.8%,107%,71%,211%,153%,80.4%
"COCC[n+]1c2c(n(Cc3cnccn3)c1C)C(=O)c1ccccc1C2=O + O=S(=O)(c1ccccc1)N(CC(F)(F)F)c1ccc(C(O)(C(F)(F)F)C(F)(F)F)cc1 [T0901317] (first compound 0.0004 µM, partner dose 1.4 µM)",73.9%,107%,40.7%,110%,175%,97.3%,115%,64.6%,92.6%
"Cn1c(Nc2ccc(C(F)(F)F)cc2)nc2cc(Oc3ccnc(-c4ncc(C(F)(F)F)[nH]4)c3)ccc21 + Oc1cc(-c2nc(-c3ccccc3)[nH]c2-c2ccncc2)ccc1Cl [L779450] (first compound 0.08 µM, partner dose 0.2 µM)",95%,94.5%,141%,179%,389%,94.6%,106%,1180%,979%
"COc1cc(Nc2ncc(F)c(Nc3ccc4c(n3)NC(=O)C(C)(C)O4)n2)cc(OC)c1OC [Tamatinib] + O=C(Nc1ccccc1)c1cc([N+](=O)[O-])ccc1Cl [GW9662] (first compound 0.4 µM, partner dose 2 µM)",177%,109%,83.7%,60.5%,292%,39.8%,168%,215%,82.7%

# Some entries already given, limited to cleaved PARP positive nuclei fraction [8] and cleaved PARP positive nuclei fraction [7]:
SMILES | cleaved PARP positive nuclei fraction [8] | cleaved PARP positive nuclei fraction [7]
C[C@@H]1CCN(C(=O)CC#N)C[C@@H]1N(C)c1ncnc2[nH]ccc12 + CCN(CC)CCCCNc1ncc2cc(-c3cc(OC)cc(OC)c3)c(NC(=O)NC(C)(C)C)nc2n1 [PD173074] (first compound 1 µM, partner dose 0.1 µM) | 149% | 48.8%
CC1(C)NC(=O)N(c2ccc([N+](=O)[O-])c(C(F)(F)F)c2)C1=O [nilutamide] + CCc1ccc(CCOc2ccc(CC3SC(=O)NC3=O)cc2)nc1 [pioglitazone] (first compound 1 µM, partner dose 2 µM) | 117% | 28%

# — the supplement of paper PMC4604168 (melanoma cell lines)
